Results: PubChem BioAssay AID2685 (National Center for Advancing Translational Sciences (NCATS), 2010)
The other results are listed elsewhere or left out. These are further read-outs of the screen, such as a control signal, another cell line or another target. No call is given for them. Most of these compounds were active or inconclusive in the main read-out, so they are no random draw. The note in brackets gives the kind of curve behind each potency; many fits are weak.

Experiment: qHTS Assay for Lipid Storage Modulators in Drosophila S3 Cells;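 for cell number change: cells counted by Cell Tracker Red CMTPX staining in the red channel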
Conditions: BODIPY lipid droplet fluorescence, 18-24 h; for cell number change: measured here: cell count max response, cells fed with added oleic acid
Procedure, shortened: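 Laser-scanning cytometry quantifies lipid droplet accumulation (500–530 nm total intensity; droplet/cell object ratio) in oleic acid-fed (400 uM added) Drosophila S3 cells treated with a concentration series. 20 uM Triacsin C defined 100% inhibition.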

[1] = measured here: lipid fluorescence (Fed channel) AC50, cells fed with added oleic acid
[2] = measured here: cell number channel AC50, cells fed with added oleic acid

Compound	cell number change	AC50 [1]	AC50 [2]
Cc1ccc(COc2ccc(-c3nnco3)cc2)cc1	-6.65%	0.103 µM [falling, full curve]	–
Cc1[nH]n(-c2ccccc2)c(=O)c1C=Nc1ccc(S(=O)(=O)NC(N)=O)cc1	-0.679%	–	–
CCOCCCNCc1ccc(OCc2ccccc2Cl)cc1	11%	6.51 µM [rising, partial curve, poor fit]	0.00461 µM [rising, full curve, poor fit]
Cc1cc(C)n(-c2nnc(C)n2/N=C/c2cc(Br)ccc2OCc2ccccc2)n1	-15.8%	4.11 µM [rising, partial curve, poor fit]	–
Cc1cc(/C=C(\C#N)C(=O)O)c(C)n1CC1CCCO1 (centres undefined)	-33.1%	20.6 µM [falling, single point]	23.1 µM [falling, single point]
CCOC(=O)NC(=O)/C(C#N)=N/Nc1ccc(F)cc1	-65.6%	16.4 µM [falling, partial curve]	25.9 µM [falling, partial curve]
COC(=O)c1cc(NC(=O)c2cc(C(C)(C)C)nn2Cc2cccc(C)c2)ccc1N1CCOCC1	-31.1%	23.1 µM [falling, single point]	25.9 µM [falling, single point]
COc1ccc(-c2nnn(CC(=O)Nc3ccc4c(c3)OCCO4)n2)cc1OC	3.16%	–	–
COc1ccc(Oc2nnc(-c3ccccc3)cc2C#N)cc1	17.6%	1.64 µM [rising, partial curve]	–
COCCn1c(Cc2ccccc2)nnc1SCC(=O)NC(C)(C)C	-14.5%	0.0326 µM [falling, full curve, poor fit]	–
CC(=O)N1CCC(C(=O)c2ccc(Cl)cc2)CC1	-3.98%	–	–
COc1ccc(NS(=O)(=O)c2ccc3nc(COc4ccc5ccccc5c4)[nH]c3c2)cc1	–	0.326 µM [falling, full curve, poor fit]	–
COCC(C)n1c(SCc2ccc(C(=O)OC)o2)nc2ccccc2c1=O (centres undefined)	16.7%	3.66 µM [rising, single point]	–
Cc1onc(-c2ccccc2)c1C(=O)N1CCN(S(=O)(=O)c2ccccc2Br)CC1	14.5%	0.731 µM [rising, full curve, poor fit]	–
CCOC(=O)NC(Nc1nnc(C)s1)(C(=O)OCC)C(F)(F)F (centres undefined)	-11.3%	–	–
CCOc1ccc(/C=N/NC(=O)C2CC2)cc1OC	15.8%	6.51 µM [rising, single point]	0.146 µM [rising, full curve, poor fit]
CCCc1ccc2oc(C(=O)N(C)CCn3ccnc3C)c(C)c2c1	13.7%	0.146 µM [rising, full curve]	–
CCCCCCOC(=O)C1=C(C)NC(=O)NC1c1ccc2c(c1)OCO2 (centres undefined)	-19.2%	–	–
Cc1cc(NS(=O)(=O)c2ccc(NC(=O)COc3cc(C)c(Cl)c(C)c3)cc2)no1	-2.4%	–	–

Compound	cell number change	AC50 [1]	AC50 [2]
C/C(O)=c1/ccc2cccc3nc(C)nc1c23	2.22%	0.82 µM [falling, full curve, poor fit]	–
CCc1ccccc1NC(=O)CSC1=C(C#N)C(c2ccc(O)c(OC)c2)C2=C(CCCC2=O)N1 (centres undefined)	-27.9%	1.46 µM [rising, partial curve]	–
Cn1nnnc1SCC(=O)Nc1cc(C(F)(F)F)ccc1N1CCOCC1	39.6%	–	0.00461 µM [rising, full curve, poor fit]
O=C(CSc1nnc(-c2n[nH]c3ccccc23)n1-c1ccccc1)Nc1ccccc1Cl	18.2%	2.59 µM [rising, full curve]	–
COc1ccc(-c2nc(CSCC(=O)NCc3ccc4c(c3)OCO4)c(C)o2)cc1	61.8%	1.3 µM [rising, full curve]	1.16 µM [rising, partial curve]
CC(=O)N1c2ccccc2C(C)CC12CCCCC2 (centres undefined)	-41.8%	29.1 µM [falling, single point]	25.9 µM [falling, partial curve, poor fit]
COc1ccccc1NC(=O)COc1ccc(CO)cc1Cl	-19.5%	3.26 µM [falling, single point]	0.103 µM [falling, full curve, poor fit]
CCN(CCCNC(=O)CNC(=O)c1nn(-c2ccc(OC)cc2)c(=O)c2ccccc12)c1cccc(C)c1	-3.6%	0.231 µM [falling, full curve, poor fit]	–
CCCCCNC(=O)c1cc(S(=O)(=O)N2CCCCC2)ccc1F	-1.16%	0.0651 µM [falling, full curve, poor fit]	–
Brc1ccc(C[n+]2ccccc2)cc1	–	29.1 µM [rising, single point]	–
COCCNC(=O)CN(C(=O)Cn1nnc2ccccc21)c1ccc(C)cc1	14.9%	0.184 µM [rising, full curve, poor fit]	–
Cc1ccc(NC(=O)COC(=O)CC2CCCC2)cc1Cl	-52%	29.1 µM [falling, single point]	23.1 µM [falling, single point]
Cc1ccc(-c2cc(C(=O)NCc3ccc4c(c3)OCO4)no2)cc1	–	2.31 µM [falling, partial curve]	–
Cc1ccc(C(C)C)cc1OCC(=O)NNC(=O)Nc1ccccc1	-37.4%	–	29.1 µM [falling, single point]
O=C1CC(N2CCC(c3nc4ccccc4s3)CC2)C(=O)N1Cc1ccccc1 (centres undefined)	59.2%	–	1.84 µM [rising, full curve]
Cc1ccc(C(=O)NNC(=O)CSc2nnc(-c3ccncc3)n2-c2ccc(C)cc2)cc1	-24.7%	29.1 µM [falling, single point]	–
COc1ccc(S(=O)(=O)Nc2ccccc2C(=O)NCc2cccnc2)cc1OC	9.21%	–	–
CC1(C)SC(=S)N(Cc2ccc3c(c2)OCO3)C1N(O)C(=O)NC1CCCCC1 (centres undefined)	-70.3%	–	1.64 µM [falling, partial curve]
Cc1cc(C)n(-c2nc(C(=O)O)cs2)n1	–	0.731 µM [rising, single point]	–

Part of the list above in order of length of the SMILES, rising:
Compound	cell number change	AC50 [1]	AC50 [2]
Brc1ccc(C[n+]2ccccc2)cc1	–	29.1 µM [rising, single point]	–
CCOCCCNCc1ccc(OCc2ccccc2Cl)cc1	11%	6.51 µM [rising, partial curve, poor fit]	0.00461 µM [rising, full curve, poor fit]
COCCn1c(Cc2ccccc2)nnc1SCC(=O)NC(C)(C)C	-14.5%	0.0326 µM [falling, full curve, poor fit]	–
